{"source": "PubChem BioAssay AID686943, Drosophila RNAi Screening Center – 2013", "purpose": "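Fly genes whose loss alters ERK activation after insulin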 (primary screen)", "cells": "Drosophila S2R+ haemocyte-like cells expressing YFP-tagged ERK (Rolled)", "reagent": "long dsRNA against Drosophila genes", "conditions": "insulin stimulation versus unstimulated cells; dose and duration not given", "measured": "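Per-plate z-scores of phospho-ERK immunostaining normalised to YFP-tagged ERK, measured with and without insulin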", "scale": "replicate 1, z-score of dpERK with insulin and replicate 2, z-score of dpERK with insulin: higher = more active ERK per ERK-YFP after insulin", "note": "The screen tested about 23,000 reagents; shown is an unselected part of those with a known target gene and a result. 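Extra replicates exist only for a retested subset of genes; insulin dose and duration not given; both raised and lowered dpERK matter.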 The numbers tell different reagents against one gene apart. Further read-outs or replicates are left out here. Not given: the amount of reagent, the time to read-out."}
{"gene": "FAM21 (Family with sequence similarity 21)", "reagent": 1, "replicate 1, z-score of dpERK with insulin": 0.13, "replicate 2, z-score of dpERK with insulin": 0.4}
{"gene": "CG11050", "reagent": 1, "replicate 1, z-score of dpERK with insulin": 1.33, "replicate 2, z-score of dpERK with insulin": 0.74}
{"gene": "UBL3 (Ubiquitin like 3)", "reagent": 1, "replicate 1, z-score of dpERK with insulin": -2.09, "replicate 2, z-score of dpERK with insulin": -0.63}
{"gene": "luna", "reagent": 1, "replicate 1, z-score of dpERK with insulin": 0.31, "replicate 2, z-score of dpERK with insulin": -0.04}
{"gene": "luna", "reagent": 2, "replicate 1, z-score of dpERK with insulin": -4.73, "replicate 2, z-score of dpERK with insulin": -3.52}
{"gene": "luna", "reagent": 3, "replicate 1, z-score of dpERK with insulin": 1.3, "replicate 2, z-score of dpERK with insulin": 1.17}
{"gene": "Rac2", "reagent": 1, "replicate 1, z-score of dpERK with insulin": -2.72, "replicate 2, z-score of dpERK with insulin": -2.34}
{"gene": "GstD6 (Glutathione S transferase D6)", "reagent": 1, "replicate 1, z-score of dpERK with insulin": 0.3, "replicate 2, z-score of dpERK with insulin": 0.27}
{"gene": "CG11134", "reagent": 1, "replicate 1, z-score of dpERK with insulin": 0.63, "replicate 2, z-score of dpERK with insulin": 1.96}
{"gene": "fbp (fructose-1,6-bisphosphatase)", "reagent": 1, "replicate 1, z-score of dpERK with insulin": -0.12, "replicate 2, z-score of dpERK with insulin": 0.39}
{"gene": "Dhit (Double hit)", "reagent": 1, "replicate 1, z-score of dpERK with insulin": 0.01, "replicate 2, z-score of dpERK with insulin": -0.13}
{"gene": "Fmo-1 (Flavin-containing monooxygenase 1)", "reagent": 1, "replicate 1, z-score of dpERK with insulin": 0.43, "replicate 2, z-score of dpERK with insulin": 0.11}
{"gene": "Ugt303B2 (UDP-glycosyltransferase family 303 member B2)", "reagent": 1, "replicate 1, z-score of dpERK with insulin": 0.19, "replicate 2, z-score of dpERK with insulin": 1.04}
{"gene": "Ugt303B2 (UDP-glycosyltransferase family 303 member B2)", "reagent": 2, "replicate 1, z-score of dpERK with insulin": 0.28, "replicate 2, z-score of dpERK with insulin": 0.21}
{"gene": "CG8860", "reagent": 1, "replicate 1, z-score of dpERK with insulin": 0.6, "replicate 2, z-score of dpERK with insulin": 0.54}
{"gene": "spoon (spoonbill)", "reagent": 1, "replicate 1, z-score of dpERK with insulin": 1.01, "replicate 2, z-score of dpERK with insulin": 0.02}
{"gene": "cyp33 (cyclophilin-33)", "reagent": 1, "replicate 1, z-score of dpERK with insulin": 0.47, "replicate 2, z-score of dpERK with insulin": -0.23}
{"gene": "jbug (jitterbug)", "reagent": 1, "replicate 1, z-score of dpERK with insulin": -0.53, "replicate 2, z-score of dpERK with insulin": -0.19}
{"gene": "jbug (jitterbug)", "reagent": 2, "replicate 1, z-score of dpERK with insulin": -0.07, "replicate 2, z-score of dpERK with insulin": 0.78}
{"gene": "jbug (jitterbug)", "reagent": 3, "replicate 1, z-score of dpERK with insulin": -0.49, "replicate 2, z-score of dpERK with insulin": -1.01}
{"gene": "jbug (jitterbug)", "reagent": 4, "replicate 1, z-score of dpERK with insulin": -0.18, "replicate 2, z-score of dpERK with insulin": -0.13}
